Source: publication PMC8487046
These are yes or no findings as the source states them, for the method shown.

By UniProt entry, the sequences of proteins in these tests, tags left out. Residues count along the entry.
UniProt Q96GP6, residues 44-871: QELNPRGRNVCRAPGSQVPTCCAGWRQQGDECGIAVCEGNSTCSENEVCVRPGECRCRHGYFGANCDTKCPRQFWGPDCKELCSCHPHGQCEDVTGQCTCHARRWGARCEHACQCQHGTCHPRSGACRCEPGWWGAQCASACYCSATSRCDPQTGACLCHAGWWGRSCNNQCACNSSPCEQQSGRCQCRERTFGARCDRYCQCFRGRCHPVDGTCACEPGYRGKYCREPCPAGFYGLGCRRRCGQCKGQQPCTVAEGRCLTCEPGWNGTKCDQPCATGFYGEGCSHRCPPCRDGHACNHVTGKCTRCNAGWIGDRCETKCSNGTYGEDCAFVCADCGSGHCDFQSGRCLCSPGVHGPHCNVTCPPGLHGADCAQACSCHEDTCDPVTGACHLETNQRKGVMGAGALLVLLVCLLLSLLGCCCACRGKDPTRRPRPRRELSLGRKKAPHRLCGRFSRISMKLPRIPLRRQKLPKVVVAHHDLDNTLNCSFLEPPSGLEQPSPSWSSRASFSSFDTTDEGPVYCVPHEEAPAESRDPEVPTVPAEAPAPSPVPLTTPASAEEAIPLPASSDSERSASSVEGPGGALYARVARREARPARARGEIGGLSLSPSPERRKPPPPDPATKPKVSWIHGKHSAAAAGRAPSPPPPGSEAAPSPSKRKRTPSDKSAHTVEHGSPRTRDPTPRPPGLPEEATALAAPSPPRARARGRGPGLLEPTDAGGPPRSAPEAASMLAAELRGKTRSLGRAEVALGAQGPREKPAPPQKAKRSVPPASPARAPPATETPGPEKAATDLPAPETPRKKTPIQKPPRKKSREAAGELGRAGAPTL
UniProt P02769, residues 25-607: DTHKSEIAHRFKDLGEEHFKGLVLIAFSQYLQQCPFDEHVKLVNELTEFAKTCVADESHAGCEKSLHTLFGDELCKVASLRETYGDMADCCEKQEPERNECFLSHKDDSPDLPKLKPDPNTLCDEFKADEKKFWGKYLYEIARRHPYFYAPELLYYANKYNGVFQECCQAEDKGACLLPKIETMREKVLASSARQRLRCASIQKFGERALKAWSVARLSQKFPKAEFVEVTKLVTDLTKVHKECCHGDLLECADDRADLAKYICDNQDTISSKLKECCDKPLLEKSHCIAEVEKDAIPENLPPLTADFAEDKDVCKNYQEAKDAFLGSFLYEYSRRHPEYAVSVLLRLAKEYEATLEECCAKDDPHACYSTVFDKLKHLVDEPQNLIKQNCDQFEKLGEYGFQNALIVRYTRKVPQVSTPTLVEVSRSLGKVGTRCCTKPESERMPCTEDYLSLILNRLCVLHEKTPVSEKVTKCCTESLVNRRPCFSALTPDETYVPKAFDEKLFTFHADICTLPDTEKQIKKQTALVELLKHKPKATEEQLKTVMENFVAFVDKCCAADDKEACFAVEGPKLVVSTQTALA

How the values were obtained:
[1] = target: T1, SR‐F1(20‐421), SR‐F1 ectodomain (human) (UniProt Q14162); experiment: SPR; soluble ligands (MalBSA 50-800 nM, BSA, AcBSA 1 µM, C1q-CLR and C1q-GR 500 nM) injected over immobilized SREC-II(44-442) or SR-F1(20-421); CM5, amine coupling; TBS pH 7.4, 2 mM CaCl2, surfactant P20 (TBS-Ca-P); 20 µL/min; 25 °C; both purified
T1 sequence: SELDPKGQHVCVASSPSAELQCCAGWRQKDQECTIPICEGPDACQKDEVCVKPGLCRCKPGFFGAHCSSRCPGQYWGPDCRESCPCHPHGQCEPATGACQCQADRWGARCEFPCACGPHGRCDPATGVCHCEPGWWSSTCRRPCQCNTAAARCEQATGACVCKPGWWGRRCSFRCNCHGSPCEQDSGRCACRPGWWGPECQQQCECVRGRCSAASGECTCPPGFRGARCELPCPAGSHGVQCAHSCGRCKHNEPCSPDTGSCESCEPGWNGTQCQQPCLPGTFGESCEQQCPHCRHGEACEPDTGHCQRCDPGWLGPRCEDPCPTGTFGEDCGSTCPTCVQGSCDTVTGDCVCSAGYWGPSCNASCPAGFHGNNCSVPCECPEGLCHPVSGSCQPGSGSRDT

[2] = target: full‐length SREC‐II at the surface of stably transfected CHO cells (UniProt Q96GP6); experiment: flow cytometry on cells; SREC-II-overexpressing CHO cells against nontransfected CHO cells, on ice, PBS with 3% BSA; C1q 80 µg/mL (40 min, detected with anti-C1q and Cy-3 anti-mouse antibodies); Alexa Fluor 488-MalBSA or Alexa Fluor 568-CRT at 1, 5 and 10 µg/mL (30 min); MFI ratio; only the binder purified

| Substance | binding [1] | binding [2] |
| --- | --- | --- |
| BSA (unmodified) (from UniProt P02769 25-607) | no binding |  |
| Alexa Fluor 568‐labelled recombinant human CRT (from UniProt P27797 18-417) |  | no binding (tested: 1, 5 and 10 µg·mL^−1) |
